Experimental data published in PubChem BioAssay AID248 (DTP/NCI, 2004).
The list is a part of this screen's results and no random one: it covers a few groups of compounds. Not every dose and run of a compound is shown. T/C is the treated group as % of the vehicle group. Where survival is the endpoint, this PubChem deposit counts one and a half times the control or more as active, and values a quarter to a half above the control carry no call in these data; other NCI protocols may use other cut-offs. Some entries show no survivor count and are marked so; the dose need not have been tolerated. Schedules are NCI's codes, read here as Q, the interval in days (D) or hours (H), X, the number of doses. Brackets with × stand for listed records that agree. Some entries hold several experiments; their values stand side by side, smallest first. Some schedules carry Z or #; the key to these is not given.

Test system: L1210 leukemia ip in BDF1 mice, survival T/C
Assay: NCI In Vivo Anticancer Drug Screen. Data for tumor model L1210 Leukemia (intraperitoneal) in B6D2F1 (BDF1) mice
Conditions: higher T/C = longer survival

NC1CCCCC1.NP(=O)(O)N(CCCl)CCCl
T/C (T/C endpoint: mean survival time, dose: 50.0 mg/kg/injection, schedule: Q04DX003 (ip), vehicle: saline): 143 % of control [survivor count not shown]
T/C (T/C endpoint: mean survival time, dose: 50.0 mg/kg/injection, schedule: Q04DX003 (ip), vehicle: water): 138 % of control [survivor count not shown]
T/C (T/C endpoint: mean survival time, dose: 50.0 mg/kg/injection, schedule: Q04DX005 (ip), vehicle: saline): 144 % of control [survivor count not shown]
T/C (T/C endpoint: mean survival time, dose: 50.0 mg/kg/injection, schedule: Q08DX002 (ip), vehicle: saline): 135 % of control [survivor count not shown]
T/C (T/C endpoint: mean survival time, dose: 50.0 mg/kg/injection, schedule: Q08DX003 (ip), vehicle: saline): 134 [survivor count not shown] and 136 % of control [survivor count not shown]
T/C (T/C endpoint: mean survival time, dose: 50.0 mg/kg/injection, schedule: Q#A X034 (ip), vehicle: saline): 130 % of control [survivor count not shown]
T/C (T/C endpoint: mean survival time, dose: 54.0 mg/kg/injection, schedule: Q04DX003 (ip), vehicle: clinical formulation): 188 % of control [survivor count not shown]
T/C (T/C endpoint: mean survival time, dose: 54.0 mg/kg/injection, schedule: Q04DX003 (ip), vehicle: water): 184 % of control [survivor count not shown]
T/C (T/C endpoint: mean survival time, dose: 59.0 mg/kg/injection, schedule: Q01DX001 (ip), vehicle: saline): 132 % of control [survivor count not shown] (2×)
T/C (T/C endpoint: mean survival time, dose: 62.5 mg/kg/injection, schedule: Q08DX002 (ip), vehicle: water): 134 [survivor count not shown] and 155 % of control [survivor count not shown]
T/C (T/C endpoint: mean survival time, dose: 66.0 mg/kg/injection, schedule: Q01DX001 (ip), vehicle: saline): 167 % of control [survivor count not shown]
T/C (T/C endpoint: mean survival time, dose: 80.0 mg/kg/injection, schedule: Q01DX001 (ip), vehicle: saline): 206 % of control [survivor count not shown]
T/C (T/C endpoint: mean survival time, dose: 80.0 mg/kg/injection, schedule: Q01DX001 (oral), vehicle: saline): 100 % of control [survivor count not shown]
T/C (T/C endpoint: mean survival time, dose: 80.0 mg/kg/injection, schedule: Q01DX001 (sc), vehicle: saline): 101 % of control [survivor count not shown]
T/C (T/C endpoint: mean survival time, dose: 80.0 mg/kg/injection, schedule: Q01DX005 (ip), vehicle: saline): 144 % of control [survivor count not shown]
T/C (T/C endpoint: mean survival time, dose: 80.0 mg/kg/injection, schedule: Q01DX009 (ip), vehicle: saline): 111 % of control [survivor count not shown]
T/C (T/C endpoint: mean survival time, dose: 80.0 mg/kg/injection, schedule: Q01DX009 (oral), vehicle: saline): 113 % of control [survivor count not shown]
T/C (T/C endpoint: mean survival time, dose: 80.0 mg/kg/injection, schedule: Q01DX009 (sc), vehicle: saline): 120 % of control [survivor count not shown]
T/C (T/C endpoint: mean survival time, dose: 80.0 mg/kg/injection, schedule: Q04DX003 (ip), vehicle: clinical formulation): 225 % of control [survivor count not shown]
T/C (T/C endpoint: mean survival time, dose: 80.0 mg/kg/injection, schedule: Q04DX003 (ip), vehicle: saline): 224 % of control [survivor count not shown]
T/C (T/C endpoint: mean survival time, dose: 80.0 mg/kg/injection, schedule: Q04DX003 (ip), vehicle: water): 242 % of control [survivor count not shown]
T/C (T/C endpoint: mean survival time, dose: 89.0 mg/kg/injection, schedule: Q01DX001 (ip), vehicle: saline): 133 % of control [survivor count not shown] (2×)
T/C (T/C endpoint: mean survival time, dose: 90.0 mg/kg/injection, schedule: Q01DX001 (ip), vehicle: saline): 207 % of control [survivor count not shown]
T/C (T/C endpoint: mean survival time, dose: 92.0 mg/kg/injection, schedule: Q01DX001 (ip), vehicle: saline): 296 % of control [survivor count not shown]
T/C (T/C endpoint: mean survival time, dose: 100.0 mg/kg/injection, schedule: Q01DX001 (ip), vehicle: saline): 124 [survivor count not shown], 149 [survivor count not shown], 150 [survivor count not shown], 152 [survivor count not shown], 164 [survivor count not shown], 165 [survivor count not shown], 176 [survivor count not shown], 219 % of control [survivor count not shown]
T/C (T/C endpoint: mean survival time, dose: 100.0 mg/kg/injection, schedule: Q01DX001 (ip), vehicle: water): 205 % of control [survivor count not shown]
T/C (T/C endpoint: mean survival time, dose: 100.0 mg/kg/injection, schedule: Q01DX005 (ip), vehicle: saline): 86 % of control [survivor count not shown]
T/C (T/C endpoint: mean survival time, dose: 100.0 mg/kg/injection, schedule: Q01DX009 (ip), vehicle: saline): 94 % of control [survivor count not shown]
T/C (T/C endpoint: mean survival time, dose: 100.0 mg/kg/injection, schedule: Q01DX017 (ip), vehicle: saline): 104 % of control [survivor count not shown]
T/C (T/C endpoint: mean survival time, dose: 100.0 mg/kg/injection, schedule: Q02DX005 (ip), vehicle: saline): 226 % of control [survivor count not shown]
T/C (T/C endpoint: mean survival time, dose: 100.0 mg/kg/injection, schedule: Q02DX009 (ip), vehicle: saline): 185 [survivor count not shown] and 274 % of control [survivor count not shown]
T/C (T/C endpoint: mean survival time, dose: 100.0 mg/kg/injection, schedule: Q04DX003 (ip), vehicle: saline): 227 % of control [survivor count not shown]
T/C (T/C endpoint: mean survival time, dose: 100.0 mg/kg/injection, schedule: Q04DX003 (ip), vehicle: water): 206 % of control [survivor count not shown]
T/C (T/C endpoint: mean survival time, dose: 100.0 mg/kg/injection, schedule: Q04DX005 (ip), vehicle: saline): 190 % of control [survivor count not shown]
T/C (T/C endpoint: mean survival time, dose: 100.0 mg/kg/injection, schedule: Q08DX002 (ip), vehicle: saline): 252 % of control [survivor count not shown]
T/C (T/C endpoint: mean survival time, dose: 100.0 mg/kg/injection, schedule: Q08DX003 (ip), vehicle: saline): 135 [survivor count not shown] and 148 % of control [survivor count not shown]
T/C (T/C endpoint: mean survival time, dose: 120.0 mg/kg/injection, schedule: Q04DX003 (ip), vehicle: clinical formulation): 206 % of control [survivor count not shown]
T/C (T/C endpoint: mean survival time, dose: 120.0 mg/kg/injection, schedule: Q04DX003 (ip), vehicle: water): 215 % of control [survivor count not shown]
T/C (T/C endpoint: mean survival time, dose: 125.0 mg/kg/injection, schedule: Q08DX002 (ip), vehicle: water): 171 [survivor count not shown] and 225 % of control [survivor count not shown]
T/C (T/C endpoint: mean survival time, dose: 133.0 mg/kg/injection, schedule: Q01DX001 (ip), vehicle: saline): 142 [survivor count not shown] (2×) and 241 % of control [survivor count not shown]
T/C (T/C endpoint: mean survival time, dose: 140.0 mg/kg/injection, schedule: Q01DX001 (ip), vehicle: saline): 440 % of control [survivor count not shown]
T/C (T/C endpoint: mean survival time, dose: 150.0 mg/kg/injection, schedule: Q01DX001 (ip), vehicle: saline): 260 [survivor count not shown] and 264 % of control [survivor count not shown]
T/C (T/C endpoint: mean survival time, dose: 160.0 mg/kg/injection, schedule: Q01DX001 (ip), vehicle: saline): 120 % of control [survivor count not shown]
T/C (T/C endpoint: mean survival time, dose: 160.0 mg/kg/injection, schedule: Q01DX001 (oral), vehicle: saline): 107 % of control [survivor count not shown]
T/C (T/C endpoint: mean survival time, dose: 160.0 mg/kg/injection, schedule: Q01DX001 (sc), vehicle: saline): 121 % of control [survivor count not shown]
T/C (T/C endpoint: mean survival time, dose: 160.0 mg/kg/injection, schedule: Q01DX009 (oral), vehicle: saline): 119 % of control [survivor count not shown]
T/C (T/C endpoint: mean survival time, dose: 200.0 mg/kg/injection, schedule: Q01DX001 (ip), vehicle: saline): 192 [survivor count not shown] (2×), 202 [survivor count not shown], 206 [survivor count not shown] (2×), 274 [survivor count not shown], 297 [survivor count not shown], 329 [survivor count not shown], 332 [survivor count not shown], 487 % of control [survivor count not shown]
T/C (T/C endpoint: mean survival time, dose: 200.0 mg/kg/injection, schedule: Q01DX001 (ip), vehicle: water): 265 % of control [survivor count not shown]
T/C (T/C endpoint: mean survival time, dose: 200.0 mg/kg/injection, schedule: Q02DX009 (ip), vehicle: saline): 98 % of control [survivor count not shown]
T/C (T/C endpoint: mean survival time, dose: 200.0 mg/kg/injection, schedule: Q04DX003 (ip), vehicle: saline): 98 % of control [survivor count not shown]
T/C (T/C endpoint: mean survival time, dose: 200.0 mg/kg/injection, schedule: Q04DX003 (ip), vehicle: water): 97 % of control [survivor count not shown]
T/C (T/C endpoint: mean survival time, dose: 200.0 mg/kg/injection, schedule: Q04DX005 (ip), vehicle: saline): 210 % of control [survivor count not shown]
T/C (T/C endpoint: mean survival time, dose: 200.0 mg/kg/injection, schedule: Q08DX002 (ip), vehicle: saline): 354 % of control [survivor count not shown]
T/C (T/C endpoint: mean survival time, dose: 200.0 mg/kg/injection, schedule: Q08DX003 (ip), vehicle: saline): 245 [survivor count not shown] and 370 % of control [survivor count not shown]
T/C (T/C endpoint: mean survival time, dose: 210.0 mg/kg/injection, schedule: Q01DX001 (ip), vehicle: saline): 515 % of control [survivor count not shown]
T/C (T/C endpoint: mean survival time, dose: 225.0 mg/kg/injection, schedule: Q01DX001 (ip), vehicle: saline): 148 [survivor count not shown] and 329 % of control [survivor count not shown]
T/C (T/C endpoint: mean survival time, dose: 250.0 mg/kg/injection, schedule: Q08DX002 (ip), vehicle: water): 90 [survivor count not shown] and 122 % of control [survivor count not shown]
T/C (T/C endpoint: mean survival time, dose: 300.0 mg/kg/injection, schedule: Q01DX001 (ip), vehicle: saline): 190 [survivor count not shown] (2×), 258 [survivor count not shown], 466 % of control [survivor count not shown]
T/C (T/C endpoint: mean survival time, dose: 320.0 mg/kg/injection, schedule: Q01DX001 (oral), vehicle: saline): 113 % of control [survivor count not shown]
T/C (T/C endpoint: mean survival time, dose: 337.0 mg/kg/injection, schedule: Q01DX001 (ip), vehicle: saline): 143 % of control [survivor count not shown]
T/C (T/C endpoint: mean survival time, dose: 400.0 mg/kg/injection, schedule: Q01DX001 (ip), vehicle: saline): 84 [survivor count not shown], 90 [survivor count not shown], 91 % of control [survivor count not shown]
T/C (T/C endpoint: mean survival time, dose: 450.0 mg/kg/injection, schedule: Q01DX001 (ip), vehicle: saline): 195 % of control [survivor count not shown] (2×)
T/C (T/C endpoint: mean survival time, dose: 500.0 mg/kg/injection, schedule: Q01DX001 (ip), vehicle: saline): 160 % of control [survivor count not shown]
T/C (T/C endpoint: median survival time, dose: 50.0 mg/kg/injection, schedule: Q01DX001 (ip), vehicle: saline): 122 [survivor count not shown], 127 [survivor count not shown], 150 % of control [survivor count not shown]
T/C (T/C endpoint: median survival time, dose: 100.0 mg/kg/injection, schedule: Q01DX001 (ip), vehicle: saline): 136 [survivor count not shown], 142 [survivor count not shown], 177 % of control [survivor count not shown]
T/C (T/C endpoint: median survival time, dose: 100.0 mg/kg/injection, schedule: Q08DX003 (ip), vehicle: saline): 205 % of control [survivor count not shown]
T/C (T/C endpoint: median survival time, dose: 200.0 mg/kg/injection, schedule: Q01DX001 (ip), vehicle: saline): 150 [survivor count not shown], 155 [survivor count not shown], 188 % of control [survivor count not shown]
T/C (T/C endpoint: median survival time, dose: 200.0 mg/kg/injection, schedule: Q08DX003 (ip), vehicle: saline): 583 % of control [survivor count not shown]
T/C (T/C endpoint: median survival time, dose: 400.0 mg/kg/injection, schedule: Q01DX001 (ip), vehicle: saline): 40 % of control [survivor count not shown]
